Measurements: paper PMC4006704

By UniProt entry, the sequences of proteins in these tests, tags left out.
UniProt P83949: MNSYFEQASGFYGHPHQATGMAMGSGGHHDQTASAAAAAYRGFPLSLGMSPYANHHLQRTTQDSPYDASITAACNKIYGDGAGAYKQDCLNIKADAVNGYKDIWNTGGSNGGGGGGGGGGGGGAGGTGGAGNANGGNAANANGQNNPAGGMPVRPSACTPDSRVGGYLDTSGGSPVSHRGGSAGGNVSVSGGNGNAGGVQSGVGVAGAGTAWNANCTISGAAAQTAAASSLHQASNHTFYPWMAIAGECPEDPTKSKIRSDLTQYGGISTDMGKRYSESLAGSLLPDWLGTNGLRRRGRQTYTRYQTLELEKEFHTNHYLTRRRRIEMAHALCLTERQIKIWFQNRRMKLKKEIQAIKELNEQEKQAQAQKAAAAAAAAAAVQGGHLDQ

T1: Med19-VC (full-length Med19 fused to the C-terminal fragment of Venus) (Drosophila melanogaster) (UniProt Q9VVL6)
T1 sequence: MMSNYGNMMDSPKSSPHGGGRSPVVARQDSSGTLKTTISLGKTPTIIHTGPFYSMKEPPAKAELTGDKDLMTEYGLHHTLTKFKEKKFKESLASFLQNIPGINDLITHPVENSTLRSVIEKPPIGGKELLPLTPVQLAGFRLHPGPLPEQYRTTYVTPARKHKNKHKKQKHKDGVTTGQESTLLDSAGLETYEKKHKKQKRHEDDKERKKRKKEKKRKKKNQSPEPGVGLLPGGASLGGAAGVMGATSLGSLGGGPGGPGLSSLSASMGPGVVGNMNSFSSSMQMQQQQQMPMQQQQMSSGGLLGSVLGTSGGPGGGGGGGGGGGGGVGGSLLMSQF


How the values were obtained:
[1] = target: Med19ΔHIM-VC (internally deleted Med19 fused to the C-terminal fragment of Venus) (Drosophila melanogaster) (UniProt Q9VVL6); experiment: co-IP; transfected Drosophila S2 cells; extracts in IP buffer (50 mM TrisHCl pH 8, 150 mM NaCl, 0.5% NP40, 1 mM EGTA), 4°C, immunoprecipitated with mouse anti-GFP (VC tag) and G-protein Sepharose; Western blots with anti-Med1, anti-Med19, anti-HA
[2] = target: T1, Med19-VC (full-length Med19 fused to the C-terminal fragment of Venus) (Drosophila melanogaster); experiment: split reporter; BiFC with Venus VN and VC fusions co-expressed from UAS constructs in Drosophila embryos under engrailed-Gal4, Ubx-Gal4 or abdA-Gal4 control
[3] = target: T1, Med19-VC (full-length Med19 fused to the C-terminal fragment of Venus) (Drosophila melanogaster); experiment: split reporter; BiFC with Venus VN and VC fusions co-expressed from UAS constructs in wing imaginal discs of third-instar larvae under dpp-Gal4 control; fixed discs, confocal, at least 10 discs per genotype
[4] = target: GST-HDAntp (GST fused to the Antp homeodomain) (Drosophila melanogaster); experiment: pull-down; 35S-labelled Med19 (full length or deleted versions) probing immobilised GST-Hox fusions or GST-HDAntp; standard conditions, essentially as in ref. 68 (Figures 1A, 5A); only the target purified
[5] = target: Med19ΔHIM-VC (internally deleted Med19 fused to the C-terminal fragment of Venus) (Drosophila melanogaster) (UniProt Q9VVL6); experiment: co-IP; transfected Drosophila S2 cells; extracts in IP buffer (50 mM TrisHCl pH 8, 150 mM NaCl, 0.5% NP40, 1 mM EGTA), 4°C, immunoprecipitated with mouse anti-GFP (VC tag) and G-protein Sepharose; Western blots with anti-Med1, anti-Med19, anti-HA; remark: listed apart in the source

Molecule	binding [2]	binding [4]	also measured
Ubx-HA (from UniProt P83949 1-389)	–	–	binding [1]: binds
VN-HDAbdA (AbdA homeodomain fused to the N-terminal fragment of Venus) (Drosophila melanogaster) (domain or fragment)	binds	–	–
VN-HDUbx (Ubx homeodomain fused to the N-terminal fragment of Venus) (Drosophila melanogaster) (domain or fragment)	binds	–	binding [3]: binds
35S-labelled full-length Med19 (Mediator complex subunit 19) (protein, UniProt Q9VVL6 1-337, 35S-labelled) MMSNYGNMMDSPKSSPHGGGRSPVVARQDSSGTLKTTISLGKTPTIIHTGPFYSMKEPPAKAELTGDKDLMTEYGLHHTLTKFKEKKFKESLASFLQNIPGINDLITHPVENSTLRSVIEKPPIGGKELLPLTPVQLAGFRLHPGPLPEQYRTTYVTPARKHKNKHKKQKHKDGVTTGQESTLLDSAGLETYEKKHKKQKRHEDDKERKKRKKEKKRKKKNQSPEPGVGLLPGGASLGGAAGVMGATSLGSLGGGPGGPGLSSLSASMGPGVVGNMNSFSSSMQMQQQQQMPMQQQQMSSGGLLGSVLGTSGGPGGGGGGGGGGGGGVGGSLLMSQF	–	binds	–
35S-labelled 70 a.a. HIM peptide of Med19 (160–229) (construct #7) (domain or fragment, UniProt Q9VVL6 160-229, 35S-labelled) RKHKNKHKKQKHKDGVTTGQESTLLDSAGLETYEKKHKKQKRHEDDKERKKRKKEKKRKKKNQSPEPGVG	–	binds	–
endogenous Med1 (three isoforms) (protein, UniProt Q9VP05 1-1475) MSGSNAKSSGTGFGSHIPSIEEKNKQIQQETMMEKLRAKYRNKPKSYEEIKKSVRMYFIEKHYPLDPLCKATLQSALDKLQHYIKVTSRHGLVERLESLSRQLGLKFMEDQQLLFISTDMFYVEILLDAAGSLSDVKVHHECKIEQQSSELVACLKSGDFADFTVQLEGLSSIYQLNAEPKVKKKAFVALQAMETDIQSLYQLHLQGHSGDSYSLMTSSSVGLVLPRRGGHPMRLTYFCPPLHLPEGDPKLASGDFTIDQVMRSSYGLSATINLEGSSANKLQTLPTVTLVRDAQTGLEVPTYAQLNQNNSLLMPATFVLRLNKPMPVCLESLKALGLPGLDSVATPPGPPTTVLNLIVQTASKQAIKNTQRGLYVNLPKETHCYFFTDNRKLQGTLVSSLPFTEPAQVPRIVAFLKKQALFYTLLASCVREQQKQYNDMDSTVILEVTAVSFNQITVELQHPYEESLATVDFLLEDGQPTCSVYCLTNEYELLSQKLTRTARKVVSIPMVIYKLLKCWDEEHEFKLHGAIGPGSGSGAIGGGGMSGGGPVSGVGNNFSQFSMDTPTPSDGSLPGGGFANINNLKMDAKSRSLADAFAASTSAAAAIAGLINLKRETDPQSGSSASGTTVSGSSSSSGSAKTSDHDIADKYKNIWKDKTPNLKHCVSITPIPGDGKSGSAGGVSGVEVQRTGGIEIIPLNAQAAIAGGGVTASSSATPTTITITPITGKDPSKDSTKKSTAASAGVGVAAKRPHESSTSSSSTSGCSGSGSSMSSSASSGSSDTQKEKKRKKKRDDSPMGPPEKIYSRQNSPAGGADASATGGVVRKFSSPSSSPKAGGGGQGLMAGVPTARPSPKHSPVYSSPKHNTASNSPKSPFGTHSPKHGSSGKPSMSTLKSAATAATILSPKGDKSSSAVGNTSSGPSASSGSSGATGLVRSFASVGAPPPPPPIPPLASSSGSISSSQSLKKEKTSSASGSSSTSSSATAGVASGGGISPASVAAAVAALKSSQQQMKSVASLSHLAAGGGLGSYAAPSGAGASGAAAVVVGAGAGAGAGASGLELSALRKGMAGGAVSLMTSTAALAPTIPAPTTTVAAGSAASLVSPVSAVVGQGQETAGAAAAATLATATILQQQPQPGAAPTSSCLTTSGGSSDSAGSINPAGASTEYMVKPSSQEGLKLTINKTGSSKSSGTGSGSSSSSGLQAKAKSSSSGATSFAGSTGSTKKQHTGLKPGVNSGPASKKATAAVSSATASSSKHFFQKANSSGNLSSKLSGSGSGGGIPLTKSNSTNSFQEHNAPRRRPSMGALASGSSGGGSGQRKLGSASGGGSGSSGSVSPALSGSMSQPPPRFDHHTDMMTILQYASPTMAASMEGFIKGLHNKFQIPKLSQRGSGGNTTSGRSTPSGSSEPALAGTSSSILGPIASSTGLTEPEAKPPVPPSQSGNEGLLNLSSTAGTPSADGIDEELLASLAGE	–	–	binding [5]: binds

Read-outs that look alike come from different tables or passages of the source. These are yes or no findings as the source states them, for the method shown. In cells and extracts the contact can be indirect. Binding calls can cover weak binding; strength is not graded here. For some of these results: Tags and fused reporters may be left off the sequences shown.
